Counter-ions that a name gives are not always drawn. Some of the results follow. The calls rarely recur for the same compound in another form.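 Kinases were expressed as nanoluciferase fusions in K562 cells and luminescence was read every 4 h between 2 and 18 h as percent of control, DMSO set to 100% and a positive control to 0%. A time point counts as decreased when the signal drops significantly (2 sigma). The hit call is the authors' own, does not follow from the count of time points alone, and its rule is not shown.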
Target: CDK2 (UniProt P24941)
Assay: kinase-Nluc reporter destabilization hit call (1 = scored as downregulated) (binary); higher = compound decreases kinase abundance
Settings: K562; 2-18 h

kinase-Nluc reporter destabilization hit call, inactive:
O=c1cc(O)cc(/C=C/c2ccc(O)c(O)c2)o1 [Hispidin] (10 µM) 0, CC1CN(C(=O)Nc2ccc(Cl)c(Cl)c2)C(=Nc2ccc(F)cc2)S1 (stereo not drawn) (10 µM) 0, COc1cc2c[n+](C)c3c4cc5c(cc4ccc3c2cc1OC)OCO5 [Nitidine (chloride)] (2 µM) 0, Cc1c(CN2CCN(S(C)(=O)=O)CC2)sc2c(N3CCOCC3)nc(-c3cnc(N)nc3)nc12 (2.5 µM) 0, Cc1cc([C@H](C)Nc2ccccc2)c2oc(N3CCOCC3)cc(=O)c2c1 (10 µM) 0, O=C(CNC(=O)c1ccc(-c2ccccc2)cc1)NC1CCCc2ccccc21 (stereo not drawn) [TAO Kinase inhibitor 1] (10 µM) 0, Cn1cc(-c2ccc(CNc3cc(-c4cnc5cc(OCCCN6CCCC6)ccn45)ncn3)cc2)cn1 (10 µM) 0, Cc1ccc(S(=O)(=O)Nc2ccccc2C=Nc2ccccc2NS(=O)(=O)c2ccc(C)cc2)cc1 (10 µM) 0, O=C(/C=C/c1ccc(O)c(O)c1)c1ccc(O[C@@H]2O[C@H](CO)[C@@H](O)[C@H](O)[C@H]2O)c(O)c1O [Marein] (10 µM) 0, O=C(NCCCNc1nc(Nc2cccc(NC(=O)N3CCCC3)c2)ncc1I)c1cccs1 (2.5 µM) 0, CN(CCNc1ccc2ncc(-c3ccc(C(N)=O)cc3)n2n1)C(=O)OC(C)(C)C (10 µM) 0, C=C(C)C(=O)Nc1cccc(-c2ncnc3[nH]cc(C(=O)OCC)c23)c1 (10 µM) 0, COc1ccc(C(=C2C(=O)Nc3ccccc32)c2ccc(OC)cc2)cc1 (10 µM) 0, CN1CCN(c2ccc(C(=O)Nc3cc(-c4cccc(NS(=O)(=O)c5ccccc5)c4)[nH]n3)cc2)CC1 [BPR1J-097 Hydrochloride] (2.5 µM) 0, C=CC(=O)Nc1cc2c(Nc3ccc(OCc4ccccn4)c(Cl)c3)ncnc2cc1OCCN1CCOCC1 (10 µM) 0, Cc1c(NC(=O)OC[C@@H]2COCCN2)cn2ncnc(Nc3ccc4c(cnn4Cc4cccc(F)c4)c3)c12 (10 µM) 0, CNc1nc(Nc2cnn(C3CCN(C4COC4)CC3F)c2Cl)ncc1C(F)(F)F (stereo not drawn) (10 µM) 0, O=C(NCCO)c1ccc2c(c1)nc(Nc1cccc(Cl)c1)c1ccncc12 [CK2 inhibitor 2] (10 µM) 0, N#CC(c1ccnc(NCCc2cccnc2)n1)c1nc2ccccc2s1 (stereo not drawn) (10 µM) 0, CCN(CC)S(=O)(=O)c1ccc(OC)c(N2CCN(C(=O)c3ccc(F)cc3C(F)(F)F)CC2)c1 (10 µM) 0, CO[C@H]1C[C@@H]2CC[C@@H](C)[C@@](O)(O2)C(=O)C(=O)N2CCCC[C@H]2C(=O)O[C@H]([C@H](C)C[C@@H]2CC[C@@H](O)[C@H](OC)C2)CC(=O)[C@H](C)/C=C(\C)[C@@H](O)[C@@H](OC)C(=O)[C@H](C)C[C@H](C)/C=C/C=C/C=C/1C [Rapamycin] (10 µM) 0, CN(C)CCN(Cc1ccc(Cl)cc1)c1ccccn1 [Chloropyramine hydrochloride] (10 µM) 0, O=C(Nc1ccc(F)cc1F)[C@H](NC(=S)Nc1cc(C(F)(F)F)cc(C(F)(F)F)c1)c1ccccc1 (2.5 µM) 0, Cc1ccc(Nc2cc(-c3cccc(N4C(=O)c5ccccc5C4=O)c3)ncn2)cc1NS(C)(=O)=O (10 µM) 0, CC(C)(C)c1ccc(S(=O)(=O)Nc2ccc(-n3ccnc3)cc2)cc1 (10 µM) 0, CCc1cc(O)c(F)cc1-c1ccc2c(-c3nc4c([nH]3)CN(C3CCN(C)CC3)CC4)n[nH]c2c1 [JAK-IN-5 (hydrochloride)] (2 µM) 0, CC1=C2C(=O)O[C@@H](c3ccoc3)[C@]2(C)CCC1 [Fraxinellone] (10 µM) 0, COc1cc(C(N)=O)nc(-c2cccc(C#C[C@]3(O)CCN(C)C3=O)c2)c1 (10 µM) 0, COc1ncc(-c2nc(N3CCOCC3)nc3c(CN4CCC(C(C)(C)O)CC4)cc(F)cc23)cc1NS(C)(=O)=O [Linperlisib] (10 µM) 0, Fc1ccc(-c2nc(-c3ccccc3F)[nH]c2-c2ccncc2)cc1 (2.5 µM) 0, CC(C)=CC[C@H](O)C1=CC(=O)c2c(O)ccc(O)c2C1=O [(-)-Alkannin] (2.5 µM) 0, CC(C)c1cnc(-c2cc(Cl)ccc2F)cc1Nc1ccncc1C(=O)NC(CO)CO (2.5 µM) 0, Cn1cnc(-c2cc3nccc(Oc4ccc(NC(=S)NC(=O)Cc5ccccc5)cc4F)c3s2)c1 [MGCD-265 analog] (10 µM) 0, COC1(c2sc3c(N4CCOCC4)nc(-c4cnc(N)nc4)nc3c2C)COC1 (2.5 µM) 0, Cc1cc(NC(=O)c2cccc(NC(=O)/C=C/CN(C)C)c2)ccc1Nc1nccc(-c2cccnc2)n1 (10 µM) 0, O=C(/C=C/c1ccc(O)c(O)c1)OC1CC(OC(=O)/C=C/c2ccc(O)c(O)c2)(C(=O)O)CC(O)C1O (stereo not drawn) [1,3-Dicaffeoylquinic acid] (10 µM) 0, COc1ccc2c(c1O)OC(C)(C)c1c-2ccc2c1C(=O)N(c1ccc(C(=O)c3ccccc3)cc1)C2=O [Ampkinone] (10 µM) 0, CNC(=O)Nc1ccc(-c2cc(-c3ccnc(Nc4ccc(C)c(S(=O)(=O)N(C)C)c4)n3)ccn2)cc1 [hSMG-1 inhibitor 11e] (2.5 µM) 0
